# Test results published in PubChem BioAssay AID1671190 (National Center for Advancing Translational Sciences (NCATS), 2021).
# Amino acid sequences for entries named in this document (tags omitted). A change or cut given only in a name is not applied to a line headed by its entry.
# UniProt P18054: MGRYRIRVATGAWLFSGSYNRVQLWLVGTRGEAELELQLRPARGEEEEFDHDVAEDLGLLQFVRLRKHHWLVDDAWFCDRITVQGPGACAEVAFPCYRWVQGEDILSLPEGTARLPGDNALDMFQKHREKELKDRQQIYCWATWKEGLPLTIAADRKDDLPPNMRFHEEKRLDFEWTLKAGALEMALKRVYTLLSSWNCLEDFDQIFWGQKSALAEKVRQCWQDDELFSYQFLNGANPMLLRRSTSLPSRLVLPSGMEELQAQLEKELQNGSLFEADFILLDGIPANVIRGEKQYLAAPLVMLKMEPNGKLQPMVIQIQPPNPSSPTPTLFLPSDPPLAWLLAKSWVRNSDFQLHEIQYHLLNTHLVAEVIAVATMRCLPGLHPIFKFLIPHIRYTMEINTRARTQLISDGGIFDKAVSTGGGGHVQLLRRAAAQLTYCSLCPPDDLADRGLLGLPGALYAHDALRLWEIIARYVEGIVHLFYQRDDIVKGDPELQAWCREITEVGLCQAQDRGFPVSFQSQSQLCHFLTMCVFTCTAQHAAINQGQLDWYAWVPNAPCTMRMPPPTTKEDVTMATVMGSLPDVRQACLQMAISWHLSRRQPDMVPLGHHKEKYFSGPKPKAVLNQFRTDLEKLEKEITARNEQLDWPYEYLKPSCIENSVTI
# In all, about 580,000 compounds went through this assay and about 6,100 (1.1%) were called active. The inconclusive results got no clear call from the source; some entries with a clear call stand among them for comparison. Calls come from the whole dose curve; as a rule, active = well fitted inhibition curve with a large enough effect; inconclusive = small, poorly fitted or top-dose-only effect, or another doubt; inactive = no such curve, though single readings can be large or run the other way. Potencies of inconclusive entries are doubtful fits and often do not repeat.
# Target: Polyunsaturated fatty acid lipoxygenase ALOX12 (Homo sapiens) (UniProt P18054)
# Assay: Primary qHTS assay for inhibitors of human arachidonate 12S-lipoxygenase (ALOX12): Round 2
# Conditions: purified 12hLO, xylenol orange hydroperoxide absorbance; activity change, negative = inhibition: at 108 µM (top of the series) unless noted
# Outline: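 Purified human 12hLO (150 nM final) in 25 mM Hepes, 0.01% Triton X-100, pH 7.0 was preincubated 15 min at room temperature with compound. Then 40 uM arachidonic acid was added, 30 min. Hydroperoxide was read by Fe-XO absorbance ratio 573/405 nm.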
# % is set by controls: 0 for no effect and ±100 for the full control effect; potency is the fitted concentration of half-maximal effect.
Structure (SMILES),"activity change, negative = inhibition",Potency
O=[N+]([O-])c1ccc(SNc2ccccc2)c([N+](=O)[O-])c1,inactive: 0.0351%,–
CCCC1=Nc2cc(C(=O)NCc3ccco3)ccc2Sc2ccccc21,–,"inconclusive: 25.1 µM [inhibitor, partial curve, poor fit]"
NC(=O)c1ccsc1NS(=O)(=O)c1ccc([N+](=O)[O-])cc1,–,active: 14.1 µM
Cc1ccccc1NC(=O)Cc1nc(COC(=O)CNC(=O)c2ccc(Cl)cc2Cl)cs1,–,"inconclusive: 89.1 µM [inhibitor, single point]"
Cc1nc2ccc(NC(=O)CC3C=CCC3)cc2s1 (configuration not stated),–,"inconclusive: 112 µM [inhibitor, single point]"
Cc1cccc2nc(CNC(=O)CN3Cc4ccccc4OC(c4ccccc4F)C3)cn12 (configuration not stated),inactive: 13.8%,–
NC(=O)CCS(=O)(=O)CCN1CCCC1c1cccc(Cl)c1 (configuration not stated),–,"inconclusive: 28.2 µM [inhibitor, partial curve]"
COc1ccc(-c2sc(Nc3ccccc3)n[n+]2-c2ccc(F)cc2)c(OC)c1OC,–,"inconclusive: 50.1 µM [inhibitor, partial curve, poor fit]"
CN(CC(=O)NC1CCCCNC1=O)Cc1ccc(Br)cc1 (configuration not stated),inactive: 59.3%,–
COc1ccc(-c2ccc3c(c2)S(=O)(=O)c2cccc(C(=O)O)c2C3=O)cc1OC,–,"inconclusive: 89.1 µM [inhibitor, partial curve, poor fit]"
CCCCN(CCCC)c1nc(-c2ccncc2)nc2ccccc12,–,inactive
c1csc(-c2nn3c(Cn4cnc5ccccc54)nnc3s2)c1,–,"inconclusive: 39.8 µM [inhibitor, partial curve]"
c1ccc(Oc2nc(Oc3ccccc3)nc(N3CCOCC3)n2)cc1,inactive: 15.2%,–
COC(=O)[C@@H](C)NC(=O)[C@@H]1CN(C(=O)c2cccc(F)c2)CCN1C(=O)NC(C)C,inactive: 46.4% [at 176 µM],–
CCOc1c(Cl)cc(/C=C/C(=O)O)cc1OC,inactive: 1.16%,–
CCC(C)(C)NC(=O)C(c1ccc(OC)cc1)N(Cc1cccs1)C(=O)CCC(=O)Nc1cc(C)on1 (configuration not stated),–,"inconclusive: 141 µM [inhibitor, single point]"
Cc1ccc(CCNC(=O)c2ccc3[nH]c(C)c(C)c3c2)cc1,inactive: -20.8%,–
Cc1ccc(NC(=O)Cc2ccccc2)cc1S(=O)(=O)N1CCOCC1,inactive: 8.42%,–
Cn1cccc1Cc1nnc(SCC(=O)NC2CCCCC2)n1-c1ccc(F)cc1,–,"inconclusive: 0.794 µM [inhibitor, partial curve, poor fit]"
CC(=O)C(C(=O)c1ccc(F)cc1)C1c2ccccc2Sc2ccccc21 (configuration not stated),inconclusive: -39.5% [inhibitor],–
NC(=O)C1CCN(C(c2ccccc2Cl)c2nnnn2CC2CCCO2)CC1 (configuration not stated),–,"inconclusive: 28.2 µM [inhibitor, partial curve, poor fit]"

# An excerpt of the results above, as a working copy:
Structure (SMILES),"activity change, negative = inhibition",Potency
COC(=O)[C@@H](C)NC(=O)[C@@H]1CN(C(=O)c2cccc(F)c2)CCN1C(=O)NC(C)C,inactive: 46.4% [at 176 µM],–
CCOc1c(Cl)cc(/C=C/C(=O)O)cc1OC,inactive: 1.16%,–

# The results go on.

Structure (SMILES),"activity change, negative = inhibition",Potency
COc1ccc(CCNC(=O)c2cc3n(n2)CCCN(Cc2ccc(C)cc2)C3=O)cc1OC,–,"inconclusive: 50.1 µM [inhibitor, partial curve, poor fit]"
Cc1c(NC(=O)c2cccc(NC(=O)Cc3c(F)cccc3Cl)c2)c(=O)n(-c2ccccc2)n1C,–,"inconclusive: 39.8 µM [inhibitor, partial curve, poor fit]"
CN1CCN(CCCN2C(=O)c3ccccc3C2C(=O)NC2CCCCC2)CC1 (configuration not stated),–,"inconclusive: 112 µM [inhibitor, single point]"
Cc1ccc(NC(=O)Cn2c(=O)c(-c3noc(C)n3)c3n(c2=O)CCCCC3)c(Cl)c1,–,"inconclusive: 31.6 µM [inhibitor, full curve]"
CC(C)c1ccc(OCC(=O)c2ccc3c(c2)N(CCCC(=O)N2CCOCC2)C(=O)CO3)cc1,–,"inconclusive: 31.6 µM [inhibitor, partial curve]"
Cc1ccc(C)c(S(=O)(=O)N(C)c2ccc(OC(=O)C3CCN(C(=O)Nc4ccccc4)CC3)cc2)c1,–,"inconclusive: 141 µM [inhibitor, partial curve, poor fit]"
COc1ccc(OC)c(NS(=O)(=O)c2ccc(-n3cccn3)cc2)c1,–,inactive
N#Cc1ccc(COc2ccc(-n3cnnn3)cc2)c(F)c1,–,"inconclusive: 50.1 µM [inhibitor, single point]"
CCC(=O)N1CCN(c2oc(/C=C/c3ccccc3)nc2C#N)CC1,–,"inconclusive: 89.1 µM [inhibitor, partial curve, poor fit]"
COc1ccc(S(=O)(=O)N2CCCCCC2)cc1C(=O)N(C)Cc1ccc(C)cc1,–,"inconclusive: 1.78 µM [inhibitor, full curve, poor fit]"
COc1ccccc1-c1nc(C#N)c(NCCN2CCOCC2)o1,inactive: 41.7%,–
COc1ccc(C2=C(C=O)C(c3ccccc3)c3ccccc3O2)cc1 (configuration not stated),–,"inconclusive: 112 µM [inhibitor, single point]"
COc1ccc(CC(N)c2csc(NC(=O)Nc3ccccc3Oc3ccccc3)n2)cc1 (configuration not stated),–,"inconclusive: 50.1 µM [inhibitor, partial curve, poor fit]"
COc1ccc(OCC(O)CN2CCCCCC2)cc1 (configuration not stated),–,"inconclusive: 1.26 µM [inhibitor, full curve]"
O=C(CSc1nnc(CNC(=O)c2cccs2)o1)Nc1ccc(Cl)cc1,–,"inconclusive: 3.55 µM [inhibitor, full curve, poor fit]"
O=C1CN(C(=O)Cn2ccc3cc(Cl)ccc32)CCN1,–,"inconclusive: 89.1 µM [inhibitor, partial curve, poor fit]"
N#CC1=C(N)N(c2ccccc2C(F)(F)F)C2=C(C(=O)CCC2)C1c1ccsc1 (configuration not stated),–,"inconclusive: 44.7 µM [inhibitor, partial curve, poor fit]"
CC(=O)Nc1ccc(NC(=S)NC(NC(=O)c2ccc(C)cc2)C(Cl)(Cl)Cl)cc1 (configuration not stated),–,active: 31.6 µM
COc1cccc(/C=N/Nc2nc(C)cc(=O)[nH]2)c1OC,–,"inconclusive: 11.2 µM [inhibitor, partial curve, poor fit]"
CCOC(=O)Cn1c(=N)n(CCOc2ccc(F)cc2)c2ccccc21,–,"inconclusive: 112 µM [inhibitor, partial curve, poor fit]"
CN(C)C(CNC(=O)c1cc(=O)c2cc(Cl)ccc2o1)c1cccs1 (configuration not stated),–,"inconclusive: 50.1 µM [inhibitor, partial curve, poor fit]"
